Article PMC5029927

T1: SconB-TAP (Aspergillus fumigatus) (UniProt B0XTS1)
T1 sequence: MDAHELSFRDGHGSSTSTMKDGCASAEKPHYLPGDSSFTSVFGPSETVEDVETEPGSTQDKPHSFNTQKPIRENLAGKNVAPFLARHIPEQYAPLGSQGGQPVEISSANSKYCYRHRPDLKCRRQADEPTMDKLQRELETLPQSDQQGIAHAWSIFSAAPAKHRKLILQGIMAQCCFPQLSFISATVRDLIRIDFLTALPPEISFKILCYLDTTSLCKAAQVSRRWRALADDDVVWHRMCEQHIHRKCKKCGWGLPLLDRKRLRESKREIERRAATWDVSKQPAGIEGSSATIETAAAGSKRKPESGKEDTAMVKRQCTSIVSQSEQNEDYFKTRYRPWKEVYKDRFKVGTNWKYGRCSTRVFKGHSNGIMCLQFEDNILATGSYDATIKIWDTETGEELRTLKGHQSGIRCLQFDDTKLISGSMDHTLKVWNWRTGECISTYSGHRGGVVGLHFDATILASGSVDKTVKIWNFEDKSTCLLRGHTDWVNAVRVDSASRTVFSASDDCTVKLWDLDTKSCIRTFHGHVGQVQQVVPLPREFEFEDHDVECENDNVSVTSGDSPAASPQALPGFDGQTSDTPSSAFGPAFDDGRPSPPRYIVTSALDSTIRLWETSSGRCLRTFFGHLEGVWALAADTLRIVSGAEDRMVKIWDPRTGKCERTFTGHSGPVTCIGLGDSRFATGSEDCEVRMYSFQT

B1: SrbB (protein, UniProt Q4W9W8 1-299)
chain: MAYNNRPDASTAFTFDNDDRFVNQQPKGPDPLSANWSYDSAIDLFSLNTMLPETFPLDIPNDMLLDPKDFPTDLFAPPADISGFAISHSGEDSLSSDQESEDQPWSPAYRVSSLDSTTPDAPTVSPRSTEKPATRRRTTTQKREQATRWSSSPEMTPQEYPVTSQATTSPAPAPVSPPAASTSRKNSRSLSTDSQTATGRNAAKRAAHNIIEKRYRTNMNAKFVALEKAMSGSGVQKPTKGGSGPASLKKSEILTNAIAYMQELQDQNAALQKELALLKQNLLPGGLWRHNKENDKFRT

Tests used:
Assay in all cases: affinity purification with mass spectrometry; tandem affinity purification (TAP) with TAP-tagged Fbx15, Fbx15(P12S), SconB and SconB(P200S), LC-MS/MS; modified protocol in S1 Text
[1] = target: T1, SconB-TAP (Aspergillus fumigatus)
[2] = target: Fbx15-TAP (Aspergillus fumigatus) (UniProt Q4WYT1)
[3] = target: Fbx15-TAP (Aspergillus fumigatus) (UniProt Q4WYT1); remark: listed apart in the source

Row | Molecule | binding [1] | binding [2] | binding [3]
1 | MetR | binds |  | 
2 | RcoA | binds |  | 
3 | SkpA | binds |  | 
4 | single-stranded DNA binding protein (AFUA_5G07890/Rim1p) (from UniProt Q4WUB7) | binds | binds | 
5 | SsnF | no binding |  | 
6 | CulA | binds |  | 
7 | DNA repair enzyme (AFUA_2G06140) (from UniProt Q4WHA0) | binds | binds | 
8 | B1 |  |  | binds

Read-outs that look alike come from different tables or passages of the source. Results are given in words; binding and its absence hold for the method and conditions named. Binding seen in cells or lysates may run through a third protein. A yes stands for co-enrichment or nearness to the bait. Other partners may have been found. For some of these results: A no says only that the protein was not detected with the bait.
